According to patent US20230303682A1:
Numbering of substitutions follows the chain as printed. Results are given in words; binding and its absence hold for the method and conditions named. Some entries that bind do so weakly or less than the wild type. Blank lines part the entries; values can stand above or below the binder they belong to.

Amino acid sequences for entries named in this document (tags omitted). A change or cut given only in a name is not applied to a line headed by its entry.
UniProt Q04721: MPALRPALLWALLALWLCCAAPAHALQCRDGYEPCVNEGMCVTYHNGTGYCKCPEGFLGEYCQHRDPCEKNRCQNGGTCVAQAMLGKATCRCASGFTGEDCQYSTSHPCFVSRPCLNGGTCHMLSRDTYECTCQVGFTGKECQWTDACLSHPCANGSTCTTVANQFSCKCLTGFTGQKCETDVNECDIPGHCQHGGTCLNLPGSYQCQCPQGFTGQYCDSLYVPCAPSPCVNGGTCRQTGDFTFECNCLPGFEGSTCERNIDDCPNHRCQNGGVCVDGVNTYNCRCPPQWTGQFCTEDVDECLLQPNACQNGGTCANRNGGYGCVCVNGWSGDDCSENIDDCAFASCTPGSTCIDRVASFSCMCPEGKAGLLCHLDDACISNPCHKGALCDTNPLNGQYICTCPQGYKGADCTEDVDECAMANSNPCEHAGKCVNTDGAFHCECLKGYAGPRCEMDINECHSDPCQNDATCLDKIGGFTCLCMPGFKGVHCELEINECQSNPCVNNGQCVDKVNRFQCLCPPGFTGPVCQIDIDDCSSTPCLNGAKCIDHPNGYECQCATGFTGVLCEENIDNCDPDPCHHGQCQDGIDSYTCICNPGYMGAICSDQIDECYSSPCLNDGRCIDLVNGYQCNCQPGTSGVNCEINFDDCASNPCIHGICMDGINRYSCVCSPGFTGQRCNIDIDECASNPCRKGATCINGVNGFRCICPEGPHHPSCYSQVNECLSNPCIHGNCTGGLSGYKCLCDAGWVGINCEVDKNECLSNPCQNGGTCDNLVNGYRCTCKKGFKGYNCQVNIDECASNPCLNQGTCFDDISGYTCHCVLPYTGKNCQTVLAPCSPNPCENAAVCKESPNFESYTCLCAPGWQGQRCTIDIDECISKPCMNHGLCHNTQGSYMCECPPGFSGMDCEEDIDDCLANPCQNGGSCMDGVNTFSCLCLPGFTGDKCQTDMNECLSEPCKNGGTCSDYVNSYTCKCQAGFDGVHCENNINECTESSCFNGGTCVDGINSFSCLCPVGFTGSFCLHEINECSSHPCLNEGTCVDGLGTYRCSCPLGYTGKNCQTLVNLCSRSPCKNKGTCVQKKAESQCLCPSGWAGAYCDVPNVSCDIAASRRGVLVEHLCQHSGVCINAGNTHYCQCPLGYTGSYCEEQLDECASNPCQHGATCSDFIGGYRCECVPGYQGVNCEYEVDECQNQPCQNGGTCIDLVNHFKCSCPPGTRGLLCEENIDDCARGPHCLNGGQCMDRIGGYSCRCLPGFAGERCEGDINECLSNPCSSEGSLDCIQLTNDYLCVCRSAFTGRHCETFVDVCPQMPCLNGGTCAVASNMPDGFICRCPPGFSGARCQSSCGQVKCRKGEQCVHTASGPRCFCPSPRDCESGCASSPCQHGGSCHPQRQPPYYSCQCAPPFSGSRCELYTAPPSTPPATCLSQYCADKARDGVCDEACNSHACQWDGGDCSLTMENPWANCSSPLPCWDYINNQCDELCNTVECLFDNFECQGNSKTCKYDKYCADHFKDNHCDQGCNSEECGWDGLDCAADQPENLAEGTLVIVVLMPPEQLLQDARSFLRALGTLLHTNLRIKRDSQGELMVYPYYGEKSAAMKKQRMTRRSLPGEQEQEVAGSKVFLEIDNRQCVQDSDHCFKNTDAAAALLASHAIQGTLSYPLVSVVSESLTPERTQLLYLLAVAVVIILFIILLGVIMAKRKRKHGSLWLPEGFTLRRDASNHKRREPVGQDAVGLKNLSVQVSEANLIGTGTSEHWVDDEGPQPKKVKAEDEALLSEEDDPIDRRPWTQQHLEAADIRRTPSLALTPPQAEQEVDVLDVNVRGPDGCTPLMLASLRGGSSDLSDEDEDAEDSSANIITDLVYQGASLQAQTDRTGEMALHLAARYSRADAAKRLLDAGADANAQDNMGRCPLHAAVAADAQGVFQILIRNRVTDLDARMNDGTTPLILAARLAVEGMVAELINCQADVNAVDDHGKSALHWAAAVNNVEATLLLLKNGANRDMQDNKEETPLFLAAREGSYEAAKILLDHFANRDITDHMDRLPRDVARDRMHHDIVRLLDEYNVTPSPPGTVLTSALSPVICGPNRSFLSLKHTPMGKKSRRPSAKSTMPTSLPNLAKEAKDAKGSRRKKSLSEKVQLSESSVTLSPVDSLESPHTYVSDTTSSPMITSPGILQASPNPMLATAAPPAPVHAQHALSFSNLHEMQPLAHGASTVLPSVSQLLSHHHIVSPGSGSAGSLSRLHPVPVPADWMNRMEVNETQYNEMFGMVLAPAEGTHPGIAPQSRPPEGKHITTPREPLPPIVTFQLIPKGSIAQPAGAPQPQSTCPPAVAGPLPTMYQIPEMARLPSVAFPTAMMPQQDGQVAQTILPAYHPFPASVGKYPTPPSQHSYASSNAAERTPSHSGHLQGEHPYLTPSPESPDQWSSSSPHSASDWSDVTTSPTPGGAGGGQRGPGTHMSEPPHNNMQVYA

Legend:
huNotch2-EGF6-10 (human) [1] = target: huNotch2-EGF6-10 (human) (UniProt Q04721); experiment: SPR BIAcore
huNotch2-EGF6-10 (human) [2] = target: huNotch2-EGF6-10 (human) (UniProt Q04721); experiment: BIAcore binding kinetic analysis of IgG1 variants

B1: hu1B2.v4L7 (antibody, V domains shown)
VH: EVQLVESGGGLVQPGGSLKLSCAVSGFTFSDFYMEWIRQASGKGLEWIAAQRNKANDFSIVYSASVKDRFTISRDTSKSTLYLQMNSLKTEDTAVYYCSRDGGRLALDAWGQGTLVTVSS
VL: DIQMTQSPSSVSASVGDRVTITCQTSEDIYSGLAWYQQKPGKSPKLLIYGASRLQDGVPSRFSGSGSGTDYTLTISSLQPEDFATYYCQQGFKYPLTFGGGTKVEIK
binding (huNotch2-EGF6-10 (human) [1]): binds

B4: hu1B2.v4 (antibody, human IgG1, V domains shown)
VH: B1 VH
VL: B1 VL with Y87F
binding (huNotch2-EGF6-10 (human) [2]): binds

B6: hu1B2.v8 (antibody, human IgG1, V domains shown)
VH: B1 VH with R104K
VL: B1 VL with Y87F
binding (huNotch2-EGF6-10 (human) [2]): binds

B7: hu1B2.v2 (antibody, human IgG1, V domains shown)
VH: B1 VH with L105W, A106G
VL: B1 VL with Y87F
binding (huNotch2-EGF6-10 (human) [2]): binds

Second part, the binder after the results:

binding (huNotch2-EGF6-10 (human) [2]): binds
B2: hu1B2.v9 (antibody, human IgG1, V domains shown)
VH: B1 VH with R104K, L105W, A106G
VL: B1 VL with Y87F

binding (huNotch2-EGF6-10 (human) [1]): binds
B3: hu1B2.v8L7 (antibody, V domains shown)
VH: B1 VH with R104K
VL: B1 VL

binding (huNotch2-EGF6-10 (human) [1]): binds
B5: hu1B2.v9L7 (antibody, V domains shown)
VH: B1 VH with R104K, L105W, A106G
VL: B1 VL
